{"source": "patent US8361793B2", "about": "“Monoclonal antibodies against gonadotropin-releasing hormone receptor” (Vancouver Biotech Ltd., priority 2009, dated 2013)", "molecules": {"B1": {"name": "GHR-106: monoclonal antibody against synthetic peptide of positions 1-29 of the extracellular domain of human GnRH receptor; hybridoma ATCC PTA-10252 (antibody, V domains shown)", "VL": "MDSQAQVLILLLLWVSGTCGDIVMSQSPSSLAVSAGEKVTMSCKSSQSLLNSRTRKNYLAWYQQKPGQSPKLLIYWASTRESGVPDRFTGSGSGTDFTLTISSVQAEDLAVYYCKQSYNLYTFGGGTKLEIK", "VH": "QVQLKESGPGLVAPSQSLSITCTVSGFSLSRYSVHWVRQPPGKGLEWLGMIWGGGSTDYNSALKSRLSISKDNSKSQVFLKMNSLQTDDTAMYYCARGNDGYYSFAYWGQGTLVTVSS", "modifications": "Synthetically constructed monoclonal antibody GHR106"}}, "system": "ovarian cancer tissues", "assay": "Immunohistochemical (IHC) staining of ovarian tissues using GHR-106", "parameters": "species or system human"}
{"molecule": "B1", "values": [{"measurement": "IHC staining of normal controls", "setting": "13 normal controls", "value": "no staining"}, {"measurement": "positive IHC staining rate", "setting": "ovarian cancer stage I", "value": "about 40%"}]}
